From patent US10494377B1, “Bergenin lipoic acid ester with antioxidant activity and a method of preparing the same” (SHAANXI UNIVERSITY OF SCIENCE AND TECHNOLOGY, priority 2018, dated 2019)

Assay: DPPH radical scavenging activity assay
Format: biochemical
Settings: 517 nm
Text: The Antioxidant Activity of Bergenin Lipoic Acid Ester Measured by a DPPH Radical Scavenging Activity Assay
2,2-Diphenyl-1-picryl hydrazyl (DPPH) is an organic compound composed of a stable organic radical. In the DPPH molecule, due to the presence of multiple electron-withdrawing —NO2 and large π bonds of the benzene ring, nitrogen free radical is stabilized. Its methanol solution is purple and has a maximum absorption peak at 517 nm. After the addition of an antioxidant, DPPH captures an electron to be paired with the free electron, and the purple fades and turns into a yellow substance. The absorption at 517 nm disappears, and the degree of fading is quantitatively related to the number of electrons it captures. Based on this principle, a spectrophotometer is used to detect the change of the absorbance of the DPPH radical in the sample solution, and the ability of the sample to provide hydrogen atoms and scavenge free radicals can be measured.
Preparation of DPPH solution: measuring exact amount of 2,2-diphenyl-1-picryl hydrazyl (DPPH) and dissolving in methanol to prepare a 0.2 mmol/L DPPH solution, stored at 0° C. in dark.
Preparation of test solutions: Vc (vitamin C, positive control), bergenin lipoic acid ester (sample), bergenin (control), lipoic acid (control), and mixture of bergenin and lipoic acid (reference). The test solutions were serially diluted with acetonitrile, and four groups of controls were separately dissolved in a test tube with a certain amount of methanol to prepare the same concentration gradient as the sample.
Absorbance measurement: Take 2 mL of sample solution (Table 1, number B), add 2 mL of DPPH solution with concentration of 2*10^−4 moL/L, mix and react in the dark at room temperature for 30 min, adjust to zero with methanol, and measure at 517 nm. The absorbance Ai was simultaneously measured for the absorbance Aj of 2 mL of methanol mixed with 2 mL of the sample solution and the absorbance Ao of 2 mL of DPPH solution mixed with 2 mL of acetonitrile (The experimental results are shown in Table 2).
Clearance calculation: clearance rate (%) [1−(Ai−Aj)/Ao]*100%

SMILES	Absorbance Ai (sample solution + DPPH solution) (7.02 ppm)	Absorbance Aj (sample solution + methanol) (7.02 ppm)	Absorbance Ai (sample solution + DPPH solution) (140.4 ppm)	Absorbance Aj (sample solution + methanol) (140.4 ppm)	Absorbance Ai (sample solution + DPPH solution) (702 ppm)	Absorbance Aj (sample solution + methanol) (702 ppm)	Absorbance Ai (sample solution + DPPH solution) (2808 ppm)	Absorbance Aj (sample solution + methanol) (2808 ppm)	Absorbance Ai (sample solution + DPPH solution) (7020 ppm)	Absorbance Aj (sample solution + methanol) (7020 ppm)	Absorbance Ai (sample solution + DPPH solution) (17550 ppm)	Absorbance Aj (sample solution + methanol) (17550 ppm)
COc1c(O)cc2c(c1O)[C@@H]1O[C@H](CO)[C@@H](O)[C@H](O)[C@H]1OC2=O [C, Bergenin]	1.176	0.195	1.128	0.196	0.996	0.194	0.723	0.195	0.313	0.197	0.249	0.209
COc1c(O)cc2c(c1O)C1OC(COC(=O)CCCCC3CCSS3)C(O)C(O)C1OC2=O (stereo not drawn) [B, Bergenin lipoic acid ester]	0.993	0.194	0.621	0.189	0.461	0.200	0.257	0.201	0.230	0.204	0.223	0.205
O=C(O)CCCCC1CCSS1 (stereo not drawn) [D, Lipoic acid]	1.023	0.192	0.994	0.199	0.826	0.196	0.622	0.210	0.373	0.195	0.292	0.199
